# Out of some 330,000 compounds screened, about 610 (0.18%) were called active. Inconclusive results, whose numbers are uncertain, are shown with a selection of clear calls. Calls follow the shape of the full dose curve. A potency beside an inconclusive call is a rough fit, not a confirmed value.
# Test: qHTS of Yeast-based Assay for SARS-CoV PLP; also: nearly all actives have a fitted effect of over 55% in size; as to activity, positive = growth rescue: 0% is about no effect
# Conditions: S. cerevisiae expressing SARS-CoV PLpro; Potency: growth rescue; activity, positive = growth rescue: at 32.9 µM (top of the series)
# Potency is read from the fitted curve at half-maximal effect.
SMILES,Potency,"activity, positive = growth rescue"
CC(=O)c1ccc(NC(=O)NNS(=O)(=O)c2ccc([N+](=O)[O-])cc2)cc1,"inconclusive: 3.55 µM [activator, single point]",–
COc1ccccc1CCNC1CCC(C)CC1 (stereo not given),"inconclusive: 10 µM [activator, single point]",–
CCCCN(C)Cc1c(C)[nH]c2ccc(OCC)cc2c1=O,"inconclusive: 15.8 µM [activator, single point]",–
CCOc1ccc(NC(=S)N(CCc2c(C)[nH]c3ccc(C)cc23)Cc2ccco2)cc1,–,inactive: -5.21%
CCOC(=O)c1c(N)sc(N)c1C(=O)OCC,"inconclusive: 15.8 µM [activator, partial curve, poor fit]",–
COC(=O)[C@H](C)NC(=O)NCc1ccco1,–,inactive: -3.58%
COc1cc2c(cc1OC)CN(Cc1ccc(OC)c(C)c1OC)CC2,"inconclusive: 20 µM [activator, single point]",–
Cc1ccc(C(=O)Oc2ccccc2N2C(=O)C3C4CCC(C4)C3C2=O)cc1 (stereo not given),"inconclusive: 20 µM [activator, single point]",–
CN(C)c1nc(-c2ccccc2)c2cc(Cl)ccc2n1,"inconclusive: 3.98 µM [activator, single point]",–
CC(C)c1ccc(NC2CCCN(C(=O)C3=NN(C)C(=O)CC3)C2)cc1 (stereo not given),"inconclusive: 3.98 µM [activator, single point]",–
CCN(CC)S(=O)(=O)c1cccc(C(=O)N/N=C/c2ccc(O)c(O)c2O)c1,active: 5.01 µM,–
O=C(CN1C(=O)CC(c2ccccc2)=Nc2ccccc21)NCc1ccccc1,"inconclusive: 2.82 µM [activator, full curve]",–
CCc1ccc(OCc2nnc(NC(=O)c3cccs3)s2)cc1,–,inactive: -6.17%
COc1ccccc1C(=O)Nn1c(C)nc2ccccc2c1=O,–,inactive: -0.0972%
O=C(CSc1ccccc1F)NCCCN1CCCC1=O,"inconclusive: 3.98 µM [activator, single point]",–
CC(C)(C)OC(=O)C[C@H]1C/C=C\C[C@@H](CC(=O)N[C@@H](CO)Cc2ccccc2)C(=O)NC[C@H](c2ccccc2)OC1=O,active: 3.55 µM,–
CC1Sc2ccc(S(=O)(=O)NCCc3ccc(S(N)(=O)=O)cc3)cc2NC1=O (stereo not given),"inconclusive: 3.98 µM [activator, single point]",–
COC(=O)C1(S(=O)(=O)c2cc(Br)cc3c2N(C(C)=O)CC3)CC1,"inconclusive: 4.47 µM [activator, single point]",–
CC(=O)NNc1nc2ccccc2s1,"inconclusive: 20 µM [activator, single point]",–
COC(=O)c1c(NS(=O)(=O)c2ccc(C)cc2)sc2c1CCC(C)C2 (stereo not given),"inconclusive: 3.98 µM [activator, single point]",–
CCOC(=O)C(C)S(=O)(=O)c1ccc(C(F)(F)F)cn1 (stereo not given),"inconclusive: 22.4 µM [activator, single point]",–
Cc1ccc2[nH]c(=O)c(CNC(C)(C)C)cc2c1,"inconclusive: 14.1 µM [activator, partial curve]",–
CC(OC(=O)CNC(=O)c1ccccc1)C(=O)Nc1ccc(S(=O)(=O)N2CCOCC2)cc1 (stereo not given),"inconclusive: 15.8 µM [activator, single point]",–
CCOC(OCC)c1cn(Cc2ccc3c(c2)C(=O)c2ccccc2C3=O)nn1,–,inactive: 14.5%

# 5 structures from above, ordered by SMILES length, rising:
SMILES,Potency,"activity, positive = growth rescue"
COC(=O)[C@H](C)NC(=O)NCc1ccco1,–,inactive: -3.58%
CCCCN(C)Cc1c(C)[nH]c2ccc(OCC)cc2c1=O,"inconclusive: 15.8 µM [activator, single point]",–
COC(=O)c1c(NS(=O)(=O)c2ccc(C)cc2)sc2c1CCC(C)C2 (stereo not given),"inconclusive: 3.98 µM [activator, single point]",–
CCOc1ccc(NC(=S)N(CCc2c(C)[nH]c3ccc(C)cc23)Cc2ccco2)cc1,–,inactive: -5.21%
CC(C)(C)OC(=O)C[C@H]1C/C=C\C[C@@H](CC(=O)N[C@@H](CO)Cc2ccccc2)C(=O)NC[C@H](c2ccccc2)OC1=O,active: 3.55 µM,–

# The results go on.

SMILES,Potency,"activity, positive = growth rescue"
O=C(c1ccc(-n2c(SCc3cccc(F)c3)nc3ccccc3c2=O)cc1)N1CCOCC1,active: 3.16 µM,–
c1ccc(CCCc2nc(-c3ccccn3)no2)cc1,"inconclusive: 20 µM [activator, single point]",–
CCCn1c(=O)c2sccc2n2c(CCCC(=O)NCc3ccco3)nnc12,"inconclusive: 3.16 µM [activator, single point]",–
Cc1cccc(OCC(=O)Nc2ccc3c(c2)nc(CCN2CCCCC2)n3C)c1,"inconclusive: 3.98 µM [activator, single point]",–
COc1ccc(/C=N\NC(=O)c2cc(O)c(O)c(O)c2)cc1CN1CCN(c2ccc(F)cc2)CC1,active: 12.6 µM,–
O=C(NCC(=O)N1CCN(c2ccccc2O)CC1)c1ccc2ccccc2c1,"inconclusive: 10 µM [activator, single point]",–
O=C(Oc1c(CN2CCOCC2)cc(Cl)c2cccnc12)c1ccccc1F,active: 2.51 µM,–
Cc1cc(C)c2sc(NNC(=O)c3ccc(S(=O)(=O)N4CCc5ccccc5C4)cc3)nc2c1,active: 7.94 µM,–
Cc1ccc(C)c(OCc2nc(-c3cccnc3)no2)c1,"inconclusive: 20 µM [activator, single point]",–
O=C(CSc1nnc(Cc2ccccc2)o1)Nc1ccc2c(c1)OCO2,–,inactive: 15.3%
O=C(COC(=O)c1n[nH]c2ccccc12)Nc1ccccc1Br,"inconclusive: 4.47 µM [activator, partial curve, poor fit]",–
Cc1ccc(N2CC(C(=O)N/N=C/c3c(F)cccc3Cl)CC2=O)cc1 (stereo not given),–,inactive: -0.914%
O=C(COc1ccc(Br)cc1)Nc1ccc2oc(=O)ccc2c1,"inconclusive: 17.8 µM [activator, single point]",–
COc1ccc(NC(=O)C2CCCN(c3ncnc4onc(-c5ccc(F)cc5)c34)C2)cc1 (stereo not given),–,inactive: 1.51%
Cc1c(C(=O)NCc2ccccc2F)oc2ccccc12,"inconclusive: 1 µM [activator, full curve]",–
CCOC(=O)N(NC(=O)C(O)(CC(C)C)CC(C)C)c1ccccc1,"inconclusive: 11.2 µM [activator, single point]",–
Cc1c(C(=O)NCCc2ccc(Cl)cc2)sc2nc3n(c(=O)c12)CCC3,"inconclusive: 3.55 µM [activator, single point]",–
Cc1ccccc1-n1cc(CNC(=O)C2CCC(=O)N(C3CC3)C2)cn1 (stereo not given),"inconclusive: 20 µM [activator, single point]",–
CN1CCCN(C(=O)COc2ccc(F)cc2F)CC1,"inconclusive: 3.16 µM [activator, single point]",–
Cc1cccc(-n2c(O)c(/C=N/NC(=O)c3ccccc3Cl)c3ccccc3c2=O)n1,active: 14.1 µM,–
Cn1nnnc1Sc1ncnc2scc(-c3cccc4ccccc34)c12,–,inactive: 2.21%
CCCCNC(=O)Nc1ccnn1C1CCCCC1,"inconclusive: 17.8 µM [activator, single point]",–
Cc1ccccc1NC(=O)Nc1cnccn1,"inconclusive: 20 µM [activator, single point]",–
CN(Cc1ccccc1)c1nc(-c2ccc([N+](=O)[O-])cc2)nc2ccccc12,"inconclusive: 20 µM [activator, partial curve]",–

SMILES,Potency,"activity, positive = growth rescue"
Cc1nn(C)c(C)c1C(C)NC(=O)c1cc(COc2cncc(Cl)c2)on1 (stereo not given),"inconclusive: 3.55 µM [activator, single point]",–
CC[C@@H](CO)NC(=O)[C@@H]1C=C2c3cccc4c3c(cn4C)C[C@H]2N(C)C1,inactive,–
COc1ccc(Cc2nc3ccc(C(=O)N(C)CC4COCCO4)cc3o2)cc1 (stereo not given),–,inactive: -6.1%
COc1ccc(CNC(=O)c2cccc(C)c2[N+](=O)[O-])cc1,"inconclusive: 10 µM [activator, partial curve]",–
O=C(CCN1CCOCC1)NC1CCCN(Cc2ccccc2F)C1 (stereo not given),"inconclusive: 3.98 µM [activator, single point]",–
COC(=O)C1=C(c2ccc(Cl)c(C(F)(F)F)c2)C[C@@H]2CC[C@H]1N2C(=O)NCc1ccco1,–,inactive: -6.4%
CC(=O)Nc1ccc(/C=N/Nc2nc3ccccc3[nH]2)cc1,"inconclusive: 2 µM [activator, full curve, poor fit]",–
O=C(O)C(Cc1ccccc1)N1C(=O)C2CCCCC2C1=O (stereo not given),"inconclusive: 3.55 µM [activator, single point]",–
COc1ccccc1/C=C1/SC(=S)N(CCC(=O)Nc2cccnc2)C1=O,"inconclusive: 2.51 µM [activator, single point]",–
Cc1cc(C(=O)N[C@@H](c2ccccc2)[C@]2(C)C[C@H]2[C@@H](C)C(=O)Nc2ccc3ccccc3c2)no1,"inconclusive: 2.82 µM [activator, single point]",–
O=C1N(c2cccc(Cl)c2)C(c2ccccc2)N2CCCN12 (stereo not given),"inconclusive: 4.47 µM [activator, partial curve]",–
CC(=O)n1c(Cl)c(NC(=O)CCl)c2ccccc21,"inconclusive: 4.47 µM [activator, partial curve]",–
CC1=CC2=NC(=O)/C(=C\c3cc(C)n(-c4cccc(Cl)c4)c3C)C(=N)N2O1,"inconclusive: 1.78 µM [activator, single point]",–
CC(OC(=O)Cc1ccc(Br)cc1)C(=O)NC1CCCC1 (stereo not given),"inconclusive: 5.62 µM [activator, partial curve]",–
O=C(N/N=C/c1ccc(F)cc1)c1sccc1OCc1ccc(F)cc1,"inconclusive: 2 µM [activator, single point]",–
N#Cc1ccc(Oc2ccc(-c3cnc4ccccc4n3)cc2)cc1C#N,active: 2 µM,–
CCCn1c(C2CC(=O)N(c3ccc(C)cc3)C2)nc2ccccc21 (stereo not given),"inconclusive: 20 µM [activator, single point]",–
Cc1cc(=O)oc2c3c(cc(OCC(=O)N4CCC(C(=O)O)CC4)c12)OC(C)(C)CC3,"inconclusive: 11.2 µM [activator, single point]",–
NNc1ncnc2c1cnn2-c1ccccc1,–,inactive: 5.19%
O=C(CSc1cccc[n+]1[O-])Nc1cccc(Oc2ccccc2)c1,"inconclusive: 14.1 µM [activator, single point]",–
COc1ccc(CNc2nc3ccccc3s2)cc1OC,–,inactive: -7.7%
O=C1c2ccccc2NC(c2ccc(-c3cccc([N+](=O)[O-])c3)o2)N1O (stereo not given),active: 10 µM,–

# — PubChem BioAssay AID485353 (National Center for Advancing Translational Sciences (NCATS), 2010)
